Measured values published in publication doi:10.1101/383497.
Results are given in words; binding and its absence hold for the method and conditions named. Binding seen in cells or lysates may run through a third protein. Some binding calls cover weakened binding; strength is not graded here.

Amino acid sequences for entries named in this document (tags omitted).
UniProt Q15796: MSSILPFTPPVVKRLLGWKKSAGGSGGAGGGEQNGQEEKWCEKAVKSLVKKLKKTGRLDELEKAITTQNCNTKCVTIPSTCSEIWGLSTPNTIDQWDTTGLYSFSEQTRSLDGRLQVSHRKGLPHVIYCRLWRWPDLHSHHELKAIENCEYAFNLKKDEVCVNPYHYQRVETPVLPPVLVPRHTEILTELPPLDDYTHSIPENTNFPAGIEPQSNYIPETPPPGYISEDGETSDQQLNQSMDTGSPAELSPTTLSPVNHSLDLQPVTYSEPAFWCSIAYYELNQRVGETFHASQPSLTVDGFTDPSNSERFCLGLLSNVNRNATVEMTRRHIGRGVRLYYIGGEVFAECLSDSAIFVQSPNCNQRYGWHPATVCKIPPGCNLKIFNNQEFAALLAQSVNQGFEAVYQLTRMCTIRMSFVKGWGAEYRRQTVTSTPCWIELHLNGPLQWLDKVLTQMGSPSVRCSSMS

Target: p53 (human (endogenous in AGS-EBV)) (UniProt P04637)
Assay: co-IP

SMAD2 (from UniProt Q15796 1-467)
binding: binds
